According to PMC3477312, “Characterization of Vibrio cholerae Hfq Provides Novel Insights into the Role of the Hfq C-Terminal Region” (Journal of Molecular Biology, 2012):
Results are given in words; binding and its absence hold for the method and conditions named.

Protein sequences, listed by entry. Tags and fused reporters are not part of them.
UniProt Q9KV11: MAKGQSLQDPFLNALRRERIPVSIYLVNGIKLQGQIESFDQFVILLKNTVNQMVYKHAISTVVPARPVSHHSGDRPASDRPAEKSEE

Target: Vibrio cholerae Hfq (Vibrio cholerae) (UniProt Q9KV11)
Test: condition: only heated at 95 °C for 60 s in the presence of 1% SDS; SDS-PAGE stability assay; 1 ug protein in loading buffer with 1% SDS heated at 95 °C for 0 to 300 s, 10% SDS-PAGE, hexamer and monomer bands quantified; hexamer to monomers; both purified

Vibrio cholerae Hfq (from UniProt Q9KV11 1-87)
binding: no binding
